{
  "sequences": {"note": "Chains of the proteins cited; added tags and fusions are not shown.", "UniProt Q8NER1, whole entry": "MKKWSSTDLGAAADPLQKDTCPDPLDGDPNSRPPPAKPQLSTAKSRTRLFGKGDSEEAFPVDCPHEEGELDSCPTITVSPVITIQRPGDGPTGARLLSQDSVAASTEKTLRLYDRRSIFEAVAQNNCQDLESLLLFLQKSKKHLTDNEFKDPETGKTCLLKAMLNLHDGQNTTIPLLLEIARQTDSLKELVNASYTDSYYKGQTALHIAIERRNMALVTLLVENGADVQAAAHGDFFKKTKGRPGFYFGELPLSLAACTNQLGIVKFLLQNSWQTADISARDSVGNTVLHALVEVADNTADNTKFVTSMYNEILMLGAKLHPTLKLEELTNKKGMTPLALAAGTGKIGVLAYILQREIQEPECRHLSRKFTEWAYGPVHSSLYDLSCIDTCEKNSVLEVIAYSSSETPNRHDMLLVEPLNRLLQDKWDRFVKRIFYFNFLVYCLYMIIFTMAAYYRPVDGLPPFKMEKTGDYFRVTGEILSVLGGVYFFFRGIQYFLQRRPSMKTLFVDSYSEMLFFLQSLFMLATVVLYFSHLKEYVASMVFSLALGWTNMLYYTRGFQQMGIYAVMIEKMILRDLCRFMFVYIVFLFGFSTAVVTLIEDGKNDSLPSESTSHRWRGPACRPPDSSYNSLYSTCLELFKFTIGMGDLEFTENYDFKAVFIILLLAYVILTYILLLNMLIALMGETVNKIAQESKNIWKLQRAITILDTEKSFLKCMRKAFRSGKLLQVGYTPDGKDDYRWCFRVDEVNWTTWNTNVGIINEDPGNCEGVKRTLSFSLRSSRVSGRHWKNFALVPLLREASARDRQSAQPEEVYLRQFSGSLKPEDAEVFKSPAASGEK"},
  "source": "patent US7329664B2",
  "about": "“Substituted (7-pyridyl-4-phenylamino-quinazolin-2-yl)-methanol analogues” (Neurogen Corporation, priority 2003, dated 2008)",
  "origin": "cited, not measured here",
  "molecular_target": "vanilloid receptor (VR) (Homo sapiens, UniProt Q8NER1)",
  "conditions": "typical values, background section; cited from earlier work",
  "note": "Some results were stated once for a whole list of compounds, not compound by compound. At least one structure is not confirmed: it was looked up by name or label, or the drawing left a doubt.",
  "data": [
    {"smiles": "Cl.Cl.Cl.Cl.Cl.Cl.N.N.N.N.N.N.N.N.N.N.N.N.N.N.[O-2].[O-2].[Ru+3].[Ru+3].[Ru+4]", "note": "[ruthenium red]", "values": [
      {"measurement": "Ki", "value": "≥ 140", "unit": "µM"}
    ]}
  ]
}
